{"source": "patent EP1932513A2", "about": "“Compounds for improving the visual appearance of the skin” (Henkel AG & Co. KGaA, priority 2006, dated 2008)", "tested_on": "Proteasom", "assay": "Proteasome activity (suc-LLVY-MCA hydrolysis) in lysate of treated fibroblasts", "assay_type": "cell-based, menschlich", "settings": "summary in words of the fibroblast results", "experimental": "Dermale Fibroblasten (isoliert aus menschlicher Vorhaut) wurden bei 37°C und 5 Vol.-% CO2 mit Dulbecco's Minimal Essential Medium High Glucose unter Zusatz von 1 Gew.-% Glutamax, 1 Gew.-% Penicillin/Streptomycin und 10 Gew.-% fetalem Kälberserum kultiviert. Zur UV-A Bestrahlung mittels eines Teilkörperbestrahlungshimmels Typ Sellamed 2000 (Dr. Sellmeier; Bestrahlungsspektrum: 340-400 nm, Maximum: 360-380 nm) wurden die Zellen in Petrischalen ausplattiert (ca. 3,8 x 10^4 Zellen/cm^2; zuzüglich 2 Tage Wachstum, danach noch subkonfluent), das Zellmedium abgesaugt, die Zellen einmal mit PBS gewaschen und die UV-A Bestrahlung anschließend in PBS durchgeführt (Dosierung über Zeitintervall bis zu 14min bei […]). Nach UV-A Bestrahlung und Entfernung des PBS wurden die Zellen wieder mit Zellmedium versetzt und bis zur Zellernte bei 37°C, 5 Vol.-% CO2 aufbewahrt. Nach Zelltrypsinierung und -schabung erfolgte unter Zusatz von hypotonem Salzpuffer (10 mM HEPES, 24 mM KCl, 10 mM MgCl2, pH 7,5) und Anwendung der Frier-Tau-Technik die Herstellung des Zelllysats. Nicht lysierte Zellen sowie Membranen und Zellkerne wurden durch zehnminütige Zentrifugation bei 14000 rpm und 4°C abgetrennt. […]", "note": "Some of these results come from one statement about several compounds together.", "data": [{"smiles": "NCCS(=O)O", "note": "[Hypotaurin]", "values": [{"measurement": "durch UV-A-Bestrahlung induzierte Abnahme der Proteasomaktivität", "result": "reduzieren"}]}]}
